Patent publication US20090247533A1, “Ecteinascidins” (The Board of Trustees of the University of Illinois, priority 1994, published 2009)
At least one compound was matched to its structure with a doubt left.

Assays:
[1] = system: CV-1 = monkey kidney cells; assay: Cytotoxicity against CV-1 cells; format: cell-based
[2] = system: P388 = murine lymphoma cells; assay: Cytotoxicity against P388 cells; format: cell-based
[3] = system: HT29 = human colon carcinoma; assay: Cytotoxicity against HT29 cells; format: cell-based
[4] = system: A549 = human lung carcinoma; assay: Cytotoxicity against A549 cells; format: cell-based
RNA polymerase = assay: Enzyme inhibition: RNA polymerase inhibition; format: biochemical

## COc1cc2c(cc1OC(C)=O)CCN[C@]21CS[C@@H]2c3c(OC(C)=O)c(C)c4c(c3[C@H](COC1=O)N1[C@@H]2[C@H]2c3c(O)c(OC)c(C)c(Br)c3C[C@@H]([C@@H]1O)N2C)OCO4 [6′-Ac, 15-Br]
[1]
  CV-1 IC50: 2.5 ng/mL
[2]
  P388 IC50: 1.0 ng/mL
[3]
  HT29 IC50: 2.5 ng/mL
[4]
  A549 IC50: 2.5 ng/mL

## COc1cc2c(cc1O)CCN[C@]21CS[C@@H]2c3c(OC(C)=O)c(C)c4c(c3[C@H](COC1=O)N1C[C@@H]3Cc5cc(C)c(OC)c(O)c5[C@H]([C@H]21)N3C)OCO4 [Et 745]
RNA polymerase
  RNAp (RNA polymerase inhibition) IC50: 5000 ng/mL
